{
  "sequences": {"note": "Sequences of proteins named here, by UniProt entry; tags and fusion partners are left off. Residues count along the entry.", "UniProt P0DTD3": "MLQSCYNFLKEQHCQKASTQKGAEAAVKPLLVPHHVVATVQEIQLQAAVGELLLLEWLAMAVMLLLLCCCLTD", "UniProt P0DTC4": "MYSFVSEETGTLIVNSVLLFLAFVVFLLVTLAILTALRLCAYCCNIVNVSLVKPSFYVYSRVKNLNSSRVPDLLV", "UniProt P0DTD2": "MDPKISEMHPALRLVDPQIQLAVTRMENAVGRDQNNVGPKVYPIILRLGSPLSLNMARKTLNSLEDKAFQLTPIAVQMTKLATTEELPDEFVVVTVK", "UniProt P33527": "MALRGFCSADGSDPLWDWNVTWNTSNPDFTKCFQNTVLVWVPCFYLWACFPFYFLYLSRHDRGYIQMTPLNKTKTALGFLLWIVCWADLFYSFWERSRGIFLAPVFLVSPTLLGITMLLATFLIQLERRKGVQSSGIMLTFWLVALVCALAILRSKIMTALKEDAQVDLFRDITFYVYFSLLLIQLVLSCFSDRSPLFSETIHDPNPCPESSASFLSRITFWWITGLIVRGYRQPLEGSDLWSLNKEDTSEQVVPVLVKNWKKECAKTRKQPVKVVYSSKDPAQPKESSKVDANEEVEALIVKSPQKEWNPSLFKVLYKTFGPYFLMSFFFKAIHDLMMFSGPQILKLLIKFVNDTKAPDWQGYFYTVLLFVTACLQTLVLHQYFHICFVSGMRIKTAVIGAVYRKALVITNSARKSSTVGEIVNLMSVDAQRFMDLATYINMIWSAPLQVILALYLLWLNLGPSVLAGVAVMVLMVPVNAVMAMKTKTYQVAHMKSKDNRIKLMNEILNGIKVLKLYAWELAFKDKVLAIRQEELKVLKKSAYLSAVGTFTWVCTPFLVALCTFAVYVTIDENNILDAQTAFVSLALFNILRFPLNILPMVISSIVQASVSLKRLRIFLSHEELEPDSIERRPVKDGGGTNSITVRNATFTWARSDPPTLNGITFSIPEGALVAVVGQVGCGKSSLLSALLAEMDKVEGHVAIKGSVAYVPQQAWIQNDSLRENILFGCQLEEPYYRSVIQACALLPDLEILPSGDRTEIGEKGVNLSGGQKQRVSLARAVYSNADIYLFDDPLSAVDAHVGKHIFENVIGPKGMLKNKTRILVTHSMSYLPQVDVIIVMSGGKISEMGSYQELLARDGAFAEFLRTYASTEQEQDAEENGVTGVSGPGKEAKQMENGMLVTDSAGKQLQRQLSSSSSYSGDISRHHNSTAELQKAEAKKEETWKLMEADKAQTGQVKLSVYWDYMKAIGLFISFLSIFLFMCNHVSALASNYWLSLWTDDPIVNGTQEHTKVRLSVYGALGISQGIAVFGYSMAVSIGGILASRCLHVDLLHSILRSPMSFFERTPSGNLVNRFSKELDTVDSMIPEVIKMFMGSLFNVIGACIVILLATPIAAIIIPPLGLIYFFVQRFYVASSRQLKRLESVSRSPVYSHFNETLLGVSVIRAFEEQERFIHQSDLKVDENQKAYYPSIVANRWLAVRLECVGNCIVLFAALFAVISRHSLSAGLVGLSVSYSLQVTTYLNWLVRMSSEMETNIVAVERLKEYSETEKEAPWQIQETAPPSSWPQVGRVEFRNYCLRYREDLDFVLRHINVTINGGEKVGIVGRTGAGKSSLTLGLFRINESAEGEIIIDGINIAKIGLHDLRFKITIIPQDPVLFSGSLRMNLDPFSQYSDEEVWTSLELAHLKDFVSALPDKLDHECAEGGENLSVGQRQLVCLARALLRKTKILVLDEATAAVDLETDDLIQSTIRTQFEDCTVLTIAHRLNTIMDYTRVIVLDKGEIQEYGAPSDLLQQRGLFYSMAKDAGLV", "UniProt P25440": "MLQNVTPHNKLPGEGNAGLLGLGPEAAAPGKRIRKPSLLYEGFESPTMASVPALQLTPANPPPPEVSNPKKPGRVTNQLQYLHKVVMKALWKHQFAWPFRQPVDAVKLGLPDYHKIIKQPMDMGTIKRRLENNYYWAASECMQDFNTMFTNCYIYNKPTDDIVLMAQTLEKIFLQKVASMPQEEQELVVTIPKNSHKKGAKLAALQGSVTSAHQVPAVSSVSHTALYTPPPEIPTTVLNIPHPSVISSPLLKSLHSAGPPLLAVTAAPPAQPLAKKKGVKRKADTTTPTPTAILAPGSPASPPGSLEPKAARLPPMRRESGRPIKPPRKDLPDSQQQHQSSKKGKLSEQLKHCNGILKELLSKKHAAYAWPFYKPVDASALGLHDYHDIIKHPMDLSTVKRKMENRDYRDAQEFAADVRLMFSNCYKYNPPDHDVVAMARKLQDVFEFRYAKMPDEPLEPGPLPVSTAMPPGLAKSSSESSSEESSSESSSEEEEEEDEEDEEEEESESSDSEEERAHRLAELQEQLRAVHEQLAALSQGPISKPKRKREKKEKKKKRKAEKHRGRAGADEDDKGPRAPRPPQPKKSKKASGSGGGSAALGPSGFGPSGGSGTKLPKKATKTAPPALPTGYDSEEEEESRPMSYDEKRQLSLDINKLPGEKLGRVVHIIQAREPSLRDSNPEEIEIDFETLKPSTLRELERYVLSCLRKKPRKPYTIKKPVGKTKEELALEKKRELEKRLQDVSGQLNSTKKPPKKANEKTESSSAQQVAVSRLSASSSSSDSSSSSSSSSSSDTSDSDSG", "UniProt P21964": "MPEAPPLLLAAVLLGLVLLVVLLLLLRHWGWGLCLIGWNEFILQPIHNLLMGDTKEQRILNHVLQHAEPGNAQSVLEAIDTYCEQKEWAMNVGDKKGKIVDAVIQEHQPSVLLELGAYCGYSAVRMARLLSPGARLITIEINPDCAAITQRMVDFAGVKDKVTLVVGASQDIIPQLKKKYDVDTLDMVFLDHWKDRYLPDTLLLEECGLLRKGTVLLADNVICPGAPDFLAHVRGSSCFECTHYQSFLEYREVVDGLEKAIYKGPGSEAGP", "UniProt P27448": "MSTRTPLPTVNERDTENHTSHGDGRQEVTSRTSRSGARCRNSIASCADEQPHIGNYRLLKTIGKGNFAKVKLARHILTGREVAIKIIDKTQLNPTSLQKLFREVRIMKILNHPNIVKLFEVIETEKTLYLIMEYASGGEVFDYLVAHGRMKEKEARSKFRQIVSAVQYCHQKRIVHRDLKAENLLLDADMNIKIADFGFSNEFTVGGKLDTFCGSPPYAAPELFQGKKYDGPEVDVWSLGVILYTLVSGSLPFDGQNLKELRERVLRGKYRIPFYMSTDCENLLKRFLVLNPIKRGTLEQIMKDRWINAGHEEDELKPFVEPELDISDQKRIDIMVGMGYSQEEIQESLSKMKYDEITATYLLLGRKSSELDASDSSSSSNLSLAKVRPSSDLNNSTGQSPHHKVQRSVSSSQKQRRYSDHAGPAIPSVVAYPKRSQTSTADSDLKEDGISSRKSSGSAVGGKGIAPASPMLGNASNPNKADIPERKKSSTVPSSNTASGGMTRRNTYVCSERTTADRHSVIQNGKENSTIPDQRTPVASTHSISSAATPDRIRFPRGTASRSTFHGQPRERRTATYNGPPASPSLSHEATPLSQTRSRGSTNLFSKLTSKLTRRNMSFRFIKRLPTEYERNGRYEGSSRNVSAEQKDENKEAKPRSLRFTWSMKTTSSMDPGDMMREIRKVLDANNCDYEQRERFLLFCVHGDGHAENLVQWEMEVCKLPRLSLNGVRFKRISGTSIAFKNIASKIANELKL", "UniProt Q8TD19": "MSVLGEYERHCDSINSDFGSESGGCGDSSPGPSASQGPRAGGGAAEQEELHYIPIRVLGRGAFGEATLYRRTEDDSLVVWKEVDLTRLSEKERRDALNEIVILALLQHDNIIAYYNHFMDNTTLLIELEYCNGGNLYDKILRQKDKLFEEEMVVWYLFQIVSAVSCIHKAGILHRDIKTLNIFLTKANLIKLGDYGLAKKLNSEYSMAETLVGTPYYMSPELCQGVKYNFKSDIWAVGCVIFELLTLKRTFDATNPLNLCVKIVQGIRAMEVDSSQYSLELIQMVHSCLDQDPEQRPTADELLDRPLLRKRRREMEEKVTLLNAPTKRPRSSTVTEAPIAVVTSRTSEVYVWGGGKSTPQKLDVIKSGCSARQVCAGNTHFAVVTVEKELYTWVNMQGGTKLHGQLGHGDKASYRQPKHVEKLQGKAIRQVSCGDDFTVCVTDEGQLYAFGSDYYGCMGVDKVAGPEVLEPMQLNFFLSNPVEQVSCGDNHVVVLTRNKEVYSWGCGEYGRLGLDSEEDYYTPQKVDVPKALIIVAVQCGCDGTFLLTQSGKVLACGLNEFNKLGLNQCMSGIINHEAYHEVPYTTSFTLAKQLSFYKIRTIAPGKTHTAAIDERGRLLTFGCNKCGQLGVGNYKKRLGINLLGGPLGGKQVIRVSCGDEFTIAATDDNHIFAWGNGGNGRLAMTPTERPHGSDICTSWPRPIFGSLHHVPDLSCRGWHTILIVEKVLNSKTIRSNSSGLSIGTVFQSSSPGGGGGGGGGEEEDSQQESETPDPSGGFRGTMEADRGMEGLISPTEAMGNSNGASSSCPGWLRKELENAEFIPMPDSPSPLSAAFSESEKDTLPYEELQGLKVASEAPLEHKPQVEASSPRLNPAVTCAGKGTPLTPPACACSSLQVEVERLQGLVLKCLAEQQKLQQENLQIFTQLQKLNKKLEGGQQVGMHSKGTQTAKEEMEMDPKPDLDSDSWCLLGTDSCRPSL", "UniProt Q86UT6, residues 87-975": "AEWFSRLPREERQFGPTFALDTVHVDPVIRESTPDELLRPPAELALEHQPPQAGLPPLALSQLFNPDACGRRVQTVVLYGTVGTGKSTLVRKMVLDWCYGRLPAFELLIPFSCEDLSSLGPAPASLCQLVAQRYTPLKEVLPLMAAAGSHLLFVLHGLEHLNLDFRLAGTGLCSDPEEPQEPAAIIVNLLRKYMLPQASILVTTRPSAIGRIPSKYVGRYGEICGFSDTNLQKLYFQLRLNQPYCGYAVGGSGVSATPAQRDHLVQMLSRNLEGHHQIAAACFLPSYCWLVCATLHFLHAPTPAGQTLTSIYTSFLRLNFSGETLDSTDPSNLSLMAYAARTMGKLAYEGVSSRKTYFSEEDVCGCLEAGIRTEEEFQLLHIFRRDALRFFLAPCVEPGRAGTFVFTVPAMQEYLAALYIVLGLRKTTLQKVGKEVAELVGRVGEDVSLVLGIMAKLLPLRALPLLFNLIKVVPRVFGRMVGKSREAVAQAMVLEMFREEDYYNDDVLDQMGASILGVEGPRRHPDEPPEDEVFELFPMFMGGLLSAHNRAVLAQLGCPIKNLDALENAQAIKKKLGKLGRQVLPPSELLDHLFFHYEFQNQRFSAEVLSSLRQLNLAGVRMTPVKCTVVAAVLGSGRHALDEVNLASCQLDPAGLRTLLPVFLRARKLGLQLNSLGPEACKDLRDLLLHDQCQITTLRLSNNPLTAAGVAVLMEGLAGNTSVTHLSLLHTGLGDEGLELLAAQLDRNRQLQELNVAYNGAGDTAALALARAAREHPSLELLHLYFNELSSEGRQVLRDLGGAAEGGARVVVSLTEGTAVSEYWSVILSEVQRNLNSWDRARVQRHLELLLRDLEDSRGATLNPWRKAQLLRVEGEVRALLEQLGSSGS", "UniProt Q9H7Z7": "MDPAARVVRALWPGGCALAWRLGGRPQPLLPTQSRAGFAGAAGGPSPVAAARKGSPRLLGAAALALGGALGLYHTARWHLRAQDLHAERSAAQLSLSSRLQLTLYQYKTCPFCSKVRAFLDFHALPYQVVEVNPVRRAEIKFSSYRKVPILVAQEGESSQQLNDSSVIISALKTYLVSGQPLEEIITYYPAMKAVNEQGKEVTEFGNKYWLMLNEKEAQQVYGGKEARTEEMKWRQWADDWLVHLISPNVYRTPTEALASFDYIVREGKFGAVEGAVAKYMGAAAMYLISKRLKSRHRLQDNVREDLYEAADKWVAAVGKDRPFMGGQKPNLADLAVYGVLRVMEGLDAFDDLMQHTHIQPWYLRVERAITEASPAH", "UniProt Q9H2J7": "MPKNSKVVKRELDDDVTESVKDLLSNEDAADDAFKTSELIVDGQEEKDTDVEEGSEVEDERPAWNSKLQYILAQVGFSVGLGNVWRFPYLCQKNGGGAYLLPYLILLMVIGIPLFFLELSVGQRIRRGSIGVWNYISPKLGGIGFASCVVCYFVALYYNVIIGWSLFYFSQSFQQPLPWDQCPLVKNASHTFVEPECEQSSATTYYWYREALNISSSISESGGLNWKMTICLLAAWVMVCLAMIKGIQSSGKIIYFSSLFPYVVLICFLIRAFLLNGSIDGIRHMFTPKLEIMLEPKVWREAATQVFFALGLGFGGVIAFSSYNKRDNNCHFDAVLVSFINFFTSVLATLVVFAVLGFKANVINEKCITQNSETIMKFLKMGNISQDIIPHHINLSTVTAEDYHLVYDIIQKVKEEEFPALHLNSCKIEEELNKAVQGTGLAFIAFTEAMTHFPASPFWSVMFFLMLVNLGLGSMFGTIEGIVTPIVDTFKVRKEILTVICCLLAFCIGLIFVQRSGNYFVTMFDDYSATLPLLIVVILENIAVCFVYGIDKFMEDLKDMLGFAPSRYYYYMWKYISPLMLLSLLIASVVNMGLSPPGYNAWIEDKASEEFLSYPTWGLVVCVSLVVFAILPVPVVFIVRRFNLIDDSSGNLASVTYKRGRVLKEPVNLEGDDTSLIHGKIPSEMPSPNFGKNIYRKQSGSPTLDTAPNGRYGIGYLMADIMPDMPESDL"},
  "source": "paper PMC7239059",
  "test_in_all_cases": "affinity purification with mass spectrometry",
  "key": {"[1]": {"molecular_target": "SARS-CoV-2 Orf9c (SARS-CoV-2) (UniProt P0DTD3)"}, "[2]": {"molecular_target": "SARS-CoV-2 Nsp6 (SARS-CoV-2) (UniProt P0DTD1)"}, "[3]": {"molecular_target": "SARS-CoV-2 Envelope (E) (SARS-CoV-2) (UniProt P0DTC4)"}, "[4]": {"molecular_target": "SARS-CoV-2 Nsp13 (SARS-CoV-2) (UniProt P0DTD1)"}, "[5]": {"molecular_target": "SARS-CoV-2 Nsp7 (SARS-CoV-2) (UniProt P0DTD1)"}, "[6]": {"molecular_target": "SARS-CoV-2 Nsp2 (SARS-CoV-2) (UniProt P0DTD1)"}, "[7]": {"molecular_target": "SARS-CoV-2 Nsp14 (SARS-CoV-2) (UniProt P0DTD1)"}, "[8]": {"molecular_target": "SARS-CoV-2 Orf9b (SARS-CoV-2) (UniProt P0DTD2)"}, "[9]": {"molecular_target": "SARS-CoV-2 Nsp9 (SARS-CoV-2) (UniProt P0DTD1)"}, "[10]": {"molecular_target": "SARS-CoV-2 Nsp12 (SARS-CoV-2) (UniProt P0DTD1)"}},
  "note": "No constants are given. Whether binding was seen depends on the method and setting. Binding seen in cells or lysates may run through a third protein. A yes stands for co-enrichment or nearness to the bait. Other partners may have been found.",
  "data": [
    {"substance": "ABCC1 (from UniProt P33527 1-1531)", "values": [
      {"measurement": "binding", "setting": "[1]", "result": "binds"}
    ]},
    {"substance": "ATP6AP1 (from UniProt Q15904 42-470)", "values": [
      {"measurement": "binding", "setting": "[2]", "result": "binds"}
    ]},
    {"substance": "BRD2 (from UniProt P25440 1-801)", "values": [
      {"measurement": "binding", "setting": "[3]", "result": "binds"}
    ]},
    {"substance": "CEP250 (from UniProt Q9BV73 1-2442)", "values": [
      {"measurement": "binding", "setting": "[4]", "result": "binds"}
    ]},
    {"substance": "COMT (from UniProt P21964 1-271)", "values": [
      {"measurement": "binding", "setting": "[5]", "result": "binds"}
    ]},
    {"substance": "EIF4H (from UniProt Q15056 1-248)", "values": [
      {"measurement": "binding", "setting": "[6]", "result": "binds"}
    ]},
    {"substance": "F2RL1 (from UniProt P55085)", "values": [
      {"measurement": "binding", "setting": "[1]", "result": "binds"}
    ]},
    {"substance": "Inosine-5'-monophosphate dehydrogenase (IMPDH2) (from UniProt P12268 1-514)", "values": [
      {"measurement": "binding", "setting": "[7]", "result": "binds"}
    ]},
    {"substance": "MARK2 (from UniProt Q7KZI7 1-788)", "values": [
      {"measurement": "binding", "setting": "[8]", "result": "binds"}
    ]},
    {"substance": "MARK3 (from UniProt P27448 1-753)", "values": [
      {"measurement": "binding", "setting": "[8]", "result": "binds"}
    ]},
    {"substance": "NEK9 (from UniProt Q8TD19 1-979)", "values": [
      {"measurement": "binding", "setting": "[9]", "result": "binds"}
    ]},
    {"substance": "NLRX1 (from UniProt Q86UT6 87-975)", "values": [
      {"measurement": "binding", "setting": "[1]", "result": "binds"}
    ]},
    {"substance": "PTGES2 (from UniProt Q9H7Z7 1-377)", "values": [
      {"measurement": "binding", "setting": "[5]", "result": "binds"}
    ]},
    {"substance": "RIPK1 (from UniProt Q13546 1-671)", "values": [
      {"measurement": "binding", "setting": "[10]", "result": "binds"}
    ]},
    {"substance": "SIGMAR1 (from UniProt Q99720 1-223)", "values": [
      {"measurement": "binding", "setting": "[2]", "result": "binds"}
    ]},
    {"substance": "TANK-binding kinase 1-binding protein 1 (TBKBP1/SINTBAD) (from UniProt A7MCY6 1-615)", "values": [
      {"measurement": "binding", "setting": "[4]", "result": "binds"}
    ]},
    {"substance": "TMEM97 (from UniProt Q5BJF2 1-176)", "values": [
      {"measurement": "binding", "setting": "[1]", "result": "binds"}
    ]},
    {"substance": "leucine importer B(0)AT2 (SLC6A15) (from UniProt Q9H2J7 1-730)", "values": [
      {"measurement": "binding", "setting": "[2]", "result": "binds"}
    ]}
  ]
}
